Measurements from US5401725A, “Neovascularization inhibition by adenosine-5'-phosphosulfates” (Unitika Ltd., priority 1990, dated 1995).

Test: toxicity in rats, parenteral administration
Type: in vivo, rat
Settings: 500 to 3,500 mg/kg in 50% dimethylsulfoxide, I.V. or I.P.

## Nc1ncnc2c1ncn2[C@@H]1O[C@H](COP(=O)(O)OS(=O)(=O)O)[C@@H](O)[C@H]1O [APS, adenosine 5'-phosphosulfate]
  intoxication or lethality: no cases of intoxication or lethality
